Results taken from PMC12296108.
These are yes or no findings as the source states them, for the method shown. Binding seen in cells or lysates may run through a third protein. Some entries that bind do so weakly or less than the wild type.

Amino acid sequences for entries named in this document (tags omitted).
UniProt Q9UKV8: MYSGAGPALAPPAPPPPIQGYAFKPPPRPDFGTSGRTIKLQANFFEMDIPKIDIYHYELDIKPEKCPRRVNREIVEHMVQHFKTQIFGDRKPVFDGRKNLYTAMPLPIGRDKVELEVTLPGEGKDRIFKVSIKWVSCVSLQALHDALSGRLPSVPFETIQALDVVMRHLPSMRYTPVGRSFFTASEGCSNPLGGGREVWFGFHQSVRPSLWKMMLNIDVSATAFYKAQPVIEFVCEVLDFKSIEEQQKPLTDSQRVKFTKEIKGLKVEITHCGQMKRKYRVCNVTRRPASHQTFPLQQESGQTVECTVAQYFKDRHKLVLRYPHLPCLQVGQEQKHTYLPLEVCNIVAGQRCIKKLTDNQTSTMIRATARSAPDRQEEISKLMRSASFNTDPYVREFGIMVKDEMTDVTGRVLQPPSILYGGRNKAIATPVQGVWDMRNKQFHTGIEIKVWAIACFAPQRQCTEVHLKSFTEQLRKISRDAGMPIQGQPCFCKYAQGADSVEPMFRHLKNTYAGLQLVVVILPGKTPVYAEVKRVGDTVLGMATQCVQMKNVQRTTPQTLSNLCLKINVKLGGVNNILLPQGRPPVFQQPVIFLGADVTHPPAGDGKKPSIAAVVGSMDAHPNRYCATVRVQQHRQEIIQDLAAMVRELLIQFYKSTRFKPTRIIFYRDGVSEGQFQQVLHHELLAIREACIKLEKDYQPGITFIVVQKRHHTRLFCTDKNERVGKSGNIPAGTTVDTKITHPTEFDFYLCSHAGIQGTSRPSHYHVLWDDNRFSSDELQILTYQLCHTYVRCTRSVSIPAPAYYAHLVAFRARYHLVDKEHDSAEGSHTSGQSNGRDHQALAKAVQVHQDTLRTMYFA
UniProt Q9UPY3: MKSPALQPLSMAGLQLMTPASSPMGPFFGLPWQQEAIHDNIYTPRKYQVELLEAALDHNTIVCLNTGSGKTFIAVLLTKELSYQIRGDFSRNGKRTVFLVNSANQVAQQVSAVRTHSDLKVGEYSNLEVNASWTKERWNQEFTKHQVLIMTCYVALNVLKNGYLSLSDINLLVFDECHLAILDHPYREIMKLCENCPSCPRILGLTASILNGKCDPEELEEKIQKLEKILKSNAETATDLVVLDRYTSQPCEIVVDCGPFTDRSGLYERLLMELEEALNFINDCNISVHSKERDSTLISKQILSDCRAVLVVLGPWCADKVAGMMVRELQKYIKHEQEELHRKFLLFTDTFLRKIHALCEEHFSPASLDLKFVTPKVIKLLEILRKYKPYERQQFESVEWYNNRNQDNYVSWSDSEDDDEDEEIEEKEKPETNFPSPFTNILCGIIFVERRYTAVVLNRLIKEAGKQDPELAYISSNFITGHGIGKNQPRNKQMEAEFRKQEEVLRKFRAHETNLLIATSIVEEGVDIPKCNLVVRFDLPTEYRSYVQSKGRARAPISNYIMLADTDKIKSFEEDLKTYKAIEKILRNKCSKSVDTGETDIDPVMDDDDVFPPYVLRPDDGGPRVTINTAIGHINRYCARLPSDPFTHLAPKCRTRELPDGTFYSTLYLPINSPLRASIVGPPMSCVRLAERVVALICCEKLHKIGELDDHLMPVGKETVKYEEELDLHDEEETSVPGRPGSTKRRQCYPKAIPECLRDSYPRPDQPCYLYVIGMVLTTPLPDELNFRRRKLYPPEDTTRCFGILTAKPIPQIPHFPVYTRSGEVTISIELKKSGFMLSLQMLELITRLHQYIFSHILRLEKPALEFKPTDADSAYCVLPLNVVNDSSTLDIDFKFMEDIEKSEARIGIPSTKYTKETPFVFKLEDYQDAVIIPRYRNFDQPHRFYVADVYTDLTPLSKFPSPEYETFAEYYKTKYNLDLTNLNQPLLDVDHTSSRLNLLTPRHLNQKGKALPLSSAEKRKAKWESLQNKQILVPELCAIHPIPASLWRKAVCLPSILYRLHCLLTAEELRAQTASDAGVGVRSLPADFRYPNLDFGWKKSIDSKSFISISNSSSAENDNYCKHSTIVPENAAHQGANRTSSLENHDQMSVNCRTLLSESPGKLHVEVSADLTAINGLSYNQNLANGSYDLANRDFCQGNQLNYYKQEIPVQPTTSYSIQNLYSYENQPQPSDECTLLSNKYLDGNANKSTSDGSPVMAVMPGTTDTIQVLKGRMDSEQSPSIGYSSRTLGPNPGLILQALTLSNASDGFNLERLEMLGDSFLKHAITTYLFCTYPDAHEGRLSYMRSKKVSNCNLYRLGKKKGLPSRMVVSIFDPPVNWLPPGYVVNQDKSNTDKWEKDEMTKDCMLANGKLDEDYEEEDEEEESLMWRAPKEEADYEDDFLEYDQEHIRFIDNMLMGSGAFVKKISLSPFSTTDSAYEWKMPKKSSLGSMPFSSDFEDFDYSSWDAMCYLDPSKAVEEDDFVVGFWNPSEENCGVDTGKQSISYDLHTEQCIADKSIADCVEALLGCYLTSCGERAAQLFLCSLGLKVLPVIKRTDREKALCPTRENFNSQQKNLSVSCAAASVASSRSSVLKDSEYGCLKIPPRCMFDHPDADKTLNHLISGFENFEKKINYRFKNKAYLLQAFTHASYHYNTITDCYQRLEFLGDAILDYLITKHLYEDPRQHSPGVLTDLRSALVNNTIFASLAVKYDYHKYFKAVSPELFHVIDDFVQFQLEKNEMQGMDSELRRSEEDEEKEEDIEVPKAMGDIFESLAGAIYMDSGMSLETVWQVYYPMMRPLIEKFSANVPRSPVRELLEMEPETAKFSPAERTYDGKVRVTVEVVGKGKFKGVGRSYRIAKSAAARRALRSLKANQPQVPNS
UniProt Q8NDV7: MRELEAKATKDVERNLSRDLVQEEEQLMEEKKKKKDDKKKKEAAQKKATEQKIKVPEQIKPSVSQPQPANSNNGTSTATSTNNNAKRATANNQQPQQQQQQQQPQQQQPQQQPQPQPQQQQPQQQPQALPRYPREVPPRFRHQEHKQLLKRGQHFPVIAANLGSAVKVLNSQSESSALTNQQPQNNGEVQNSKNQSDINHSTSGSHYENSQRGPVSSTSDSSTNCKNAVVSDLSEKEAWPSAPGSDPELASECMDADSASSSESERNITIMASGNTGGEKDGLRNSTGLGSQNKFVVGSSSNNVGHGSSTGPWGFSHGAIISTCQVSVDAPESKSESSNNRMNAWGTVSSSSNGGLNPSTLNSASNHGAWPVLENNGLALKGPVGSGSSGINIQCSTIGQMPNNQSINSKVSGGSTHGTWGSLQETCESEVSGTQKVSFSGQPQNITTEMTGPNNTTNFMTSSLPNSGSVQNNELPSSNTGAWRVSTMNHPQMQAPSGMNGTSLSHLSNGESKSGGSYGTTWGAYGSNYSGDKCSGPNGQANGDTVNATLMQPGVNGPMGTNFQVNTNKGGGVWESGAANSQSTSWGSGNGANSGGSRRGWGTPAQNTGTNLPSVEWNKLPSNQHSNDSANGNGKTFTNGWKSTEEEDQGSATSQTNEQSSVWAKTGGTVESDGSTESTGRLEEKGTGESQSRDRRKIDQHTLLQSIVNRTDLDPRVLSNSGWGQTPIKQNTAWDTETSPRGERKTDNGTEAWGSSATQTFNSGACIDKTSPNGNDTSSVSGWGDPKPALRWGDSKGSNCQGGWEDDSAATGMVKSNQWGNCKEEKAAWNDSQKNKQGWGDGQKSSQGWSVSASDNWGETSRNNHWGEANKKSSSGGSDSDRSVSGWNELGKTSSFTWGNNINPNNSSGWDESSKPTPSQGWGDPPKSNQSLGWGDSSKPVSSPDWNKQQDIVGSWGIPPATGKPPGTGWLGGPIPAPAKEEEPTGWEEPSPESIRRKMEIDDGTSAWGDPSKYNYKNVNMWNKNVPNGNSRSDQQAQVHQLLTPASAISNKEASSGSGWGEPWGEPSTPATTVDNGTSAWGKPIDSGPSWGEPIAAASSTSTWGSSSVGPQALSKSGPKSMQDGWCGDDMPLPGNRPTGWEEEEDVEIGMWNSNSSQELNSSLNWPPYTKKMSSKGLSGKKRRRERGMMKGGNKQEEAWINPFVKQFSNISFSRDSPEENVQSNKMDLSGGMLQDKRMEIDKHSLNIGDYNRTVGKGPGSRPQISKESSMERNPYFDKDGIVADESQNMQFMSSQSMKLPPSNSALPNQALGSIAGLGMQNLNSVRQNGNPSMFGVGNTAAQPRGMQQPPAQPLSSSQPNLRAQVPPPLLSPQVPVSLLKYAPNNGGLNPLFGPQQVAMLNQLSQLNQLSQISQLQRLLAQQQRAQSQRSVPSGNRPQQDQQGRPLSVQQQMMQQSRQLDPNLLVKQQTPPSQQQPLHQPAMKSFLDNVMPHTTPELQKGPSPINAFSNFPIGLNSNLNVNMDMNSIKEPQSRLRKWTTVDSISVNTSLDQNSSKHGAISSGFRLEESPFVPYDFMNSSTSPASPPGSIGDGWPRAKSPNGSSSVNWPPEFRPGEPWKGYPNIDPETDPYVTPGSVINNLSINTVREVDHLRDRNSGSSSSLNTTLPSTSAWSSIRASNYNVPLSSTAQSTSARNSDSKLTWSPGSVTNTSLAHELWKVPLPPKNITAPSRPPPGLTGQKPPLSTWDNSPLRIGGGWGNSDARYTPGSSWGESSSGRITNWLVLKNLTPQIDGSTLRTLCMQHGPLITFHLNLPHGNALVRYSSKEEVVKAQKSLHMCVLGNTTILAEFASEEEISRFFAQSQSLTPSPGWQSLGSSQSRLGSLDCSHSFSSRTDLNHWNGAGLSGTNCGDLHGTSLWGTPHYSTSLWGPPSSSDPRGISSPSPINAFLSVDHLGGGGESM

Molecular target: Argonaute 2 (AGO2), untagged, endogenous in A549 WT and UnTagged clones (human (endogenous in A549)) (UniProt Q9UKV8)
Test: co-IP; endogenous co-immunoprecipitation from A549 lysates (WT, UT C1, UT C2, AGO2^HALO C5, AGO2^HALO C10); NP-40 buffer (150 mM NaCl, 50 mM Tris pH 8.0, 0.7% NP-40, 5% glycerol); 1 ug mouse IgA anti-AGO2 or IgA isotype control, 3 h at room temperature, Protein L beads; washed in PBS with 0.1% …; glycine pH 2.5 elution; Western blot for Dicer and TNRC6A

Substance	binding
Dicer (from UniProt Q9UPY3 1-1922) (enzyme)	binds
TNRC6A (from UniProt Q8NDV7 1-1962)	binds
